These results are taken from paper PMC9107765.

Amino acid sequences for entries named in this document (tags omitted).
UniProt Q9H0F5: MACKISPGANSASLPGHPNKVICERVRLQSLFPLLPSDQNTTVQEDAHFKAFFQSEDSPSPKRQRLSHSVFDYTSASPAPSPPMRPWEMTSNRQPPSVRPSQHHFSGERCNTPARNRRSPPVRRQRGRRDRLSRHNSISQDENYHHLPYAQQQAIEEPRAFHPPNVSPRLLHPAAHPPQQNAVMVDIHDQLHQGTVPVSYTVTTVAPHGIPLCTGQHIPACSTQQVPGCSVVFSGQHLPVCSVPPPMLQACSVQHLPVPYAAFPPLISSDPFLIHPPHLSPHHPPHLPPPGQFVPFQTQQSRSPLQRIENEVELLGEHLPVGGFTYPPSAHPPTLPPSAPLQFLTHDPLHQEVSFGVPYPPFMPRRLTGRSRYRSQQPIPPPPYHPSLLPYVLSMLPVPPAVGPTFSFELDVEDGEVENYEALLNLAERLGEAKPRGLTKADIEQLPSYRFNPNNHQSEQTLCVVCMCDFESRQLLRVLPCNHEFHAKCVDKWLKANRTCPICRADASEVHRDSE
UniProt O43707: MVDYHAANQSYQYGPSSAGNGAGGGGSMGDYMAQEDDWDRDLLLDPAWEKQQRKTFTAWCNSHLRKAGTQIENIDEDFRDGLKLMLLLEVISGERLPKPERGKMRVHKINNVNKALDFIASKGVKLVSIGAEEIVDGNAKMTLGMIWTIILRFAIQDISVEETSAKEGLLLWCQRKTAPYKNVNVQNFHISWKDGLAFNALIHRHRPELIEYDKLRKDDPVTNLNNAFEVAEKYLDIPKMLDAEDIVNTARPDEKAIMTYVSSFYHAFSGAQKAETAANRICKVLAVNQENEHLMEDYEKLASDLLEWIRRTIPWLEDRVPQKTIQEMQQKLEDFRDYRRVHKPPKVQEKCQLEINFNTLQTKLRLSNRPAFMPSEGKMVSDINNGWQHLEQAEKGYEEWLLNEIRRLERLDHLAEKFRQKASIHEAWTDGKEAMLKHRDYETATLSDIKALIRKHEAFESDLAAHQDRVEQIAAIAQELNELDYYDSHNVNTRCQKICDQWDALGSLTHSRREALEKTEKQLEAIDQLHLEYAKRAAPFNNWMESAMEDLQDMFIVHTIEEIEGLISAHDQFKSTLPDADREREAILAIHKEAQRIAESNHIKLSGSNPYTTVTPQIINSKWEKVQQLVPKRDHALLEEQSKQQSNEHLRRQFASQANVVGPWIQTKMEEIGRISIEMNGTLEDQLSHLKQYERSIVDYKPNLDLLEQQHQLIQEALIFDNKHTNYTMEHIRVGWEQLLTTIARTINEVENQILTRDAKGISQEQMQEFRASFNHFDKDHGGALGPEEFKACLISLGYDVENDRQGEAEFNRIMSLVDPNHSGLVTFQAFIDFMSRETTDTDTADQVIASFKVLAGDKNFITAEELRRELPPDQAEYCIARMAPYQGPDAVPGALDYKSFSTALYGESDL

No constants are given. Whether binding was seen depends on the method and setting. In cells and extracts the contact can be indirect. Some entries that bind do so weakly or less than the wild type.

In assay [1] the target is RNF38 (ring finger protein 38) (UniProt Q9H0F5). As to the kind of experiment: co-IP; lysates of SUNE-1-NC and SUNE-1-RNF38 cells incubated with antibody to RNF38, ACTN4 or IgG at 4 °C overnight; protein A/G magnetic beads; washed with RIPA buffer; immunoblot for RNF38, ACTN4 and GAPDH; both orientations.
The target of assay [2] is ACTN4 (Actinin Alpha 4) (human (endogenous in SUNE-1)) (UniProt O43707). The description is as above.

For the substance “ACTN4 (Actinin Alpha 4) (from UniProt O43707 1-911)”, the binding result in assay [1] is given as “binds”.

Take “RNF38 (ring finger protein 38) (from UniProt Q9H0F5 1-515) (enzyme)”: the binding result in assay [2] is “binds”.
